Reference: paper PMC10478442
No constants are given. Whether binding was seen depends on the method and setting. Binding seen in cells or lysates may run through a third protein. Some results given as binding are weak or reduced against the parent protein; the word gives no strength. Tags and fused reporters may be left off the sequences shown.

Biological target: T1, ERCC Exception Repair 6 Like (ERCC6L), DDK-tagged (UniProt Q2NKX8)
T1 sequence: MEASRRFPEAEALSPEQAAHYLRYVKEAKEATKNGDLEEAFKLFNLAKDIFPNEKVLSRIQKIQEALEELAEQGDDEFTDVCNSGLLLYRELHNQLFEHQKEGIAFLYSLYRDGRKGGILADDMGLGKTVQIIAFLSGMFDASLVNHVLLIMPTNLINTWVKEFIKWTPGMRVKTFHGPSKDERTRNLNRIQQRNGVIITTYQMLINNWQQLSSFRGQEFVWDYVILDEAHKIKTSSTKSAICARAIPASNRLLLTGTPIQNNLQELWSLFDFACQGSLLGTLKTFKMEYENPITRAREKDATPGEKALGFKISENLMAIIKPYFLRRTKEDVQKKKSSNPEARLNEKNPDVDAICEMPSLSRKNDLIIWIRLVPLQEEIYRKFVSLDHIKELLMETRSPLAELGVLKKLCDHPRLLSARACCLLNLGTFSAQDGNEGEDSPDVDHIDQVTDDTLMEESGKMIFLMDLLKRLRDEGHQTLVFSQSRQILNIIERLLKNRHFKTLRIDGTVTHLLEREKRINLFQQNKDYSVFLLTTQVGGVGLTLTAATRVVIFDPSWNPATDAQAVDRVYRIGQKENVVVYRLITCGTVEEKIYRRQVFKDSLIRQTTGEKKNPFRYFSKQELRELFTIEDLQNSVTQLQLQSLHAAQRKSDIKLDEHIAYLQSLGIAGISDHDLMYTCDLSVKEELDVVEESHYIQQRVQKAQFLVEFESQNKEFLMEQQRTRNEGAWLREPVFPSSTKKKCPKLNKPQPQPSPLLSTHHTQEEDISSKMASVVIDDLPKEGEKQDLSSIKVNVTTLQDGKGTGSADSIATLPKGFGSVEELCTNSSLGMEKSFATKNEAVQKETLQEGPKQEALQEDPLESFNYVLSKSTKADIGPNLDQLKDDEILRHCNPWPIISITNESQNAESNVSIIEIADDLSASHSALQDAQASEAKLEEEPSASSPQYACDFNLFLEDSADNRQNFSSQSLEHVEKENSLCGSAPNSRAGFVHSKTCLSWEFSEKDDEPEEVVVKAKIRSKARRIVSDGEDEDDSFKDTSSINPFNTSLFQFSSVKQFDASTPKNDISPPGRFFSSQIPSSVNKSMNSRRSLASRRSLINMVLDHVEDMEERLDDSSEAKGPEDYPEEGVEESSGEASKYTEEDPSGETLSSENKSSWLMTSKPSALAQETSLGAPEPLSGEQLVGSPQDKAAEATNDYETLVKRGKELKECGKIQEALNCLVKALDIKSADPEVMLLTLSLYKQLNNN
Experiment: co-IP; 293T cells transfected with ERCC6L-DDK and KIF4A plasmids separately or jointly; IP lysis buffer; supernatant with protein A/G agarose beads and anti-DDK beads overnight at 4 °C; Western blotting

B1: kinesin family member 4 (KIF4A) (protein, UniProt O95239 1-1232)
chain: MKEEVKGIPVRVALRCRPLVPKEISEGCQMCLSFVPGEPQVVVGTDKSFTYDFVFDPSTEQEEVFNTAVAPLIKGVFKGYNATVLAYGQTGSGKTYSMGGAYTAEQENEPTVGVIPRVIQLLFKEIDKKSDFEFTLKVSYLEIYNEEILDLLCPSREKAQINIREDPKEGIKIVGLTEKTVLVALDTVSCLEQGNNSRTVASTAMNSQSSRSHAIFTISLEQRKKSDKNSSFRSKLHLVDLAGSERQKKTKAEGDRLKEGININRGLLCLGNVISALGDDKKGGFVPYRDSKLTRLLQDSLGGNSHTLMIACVSPADSNLEETLNTLRYADRARKIKNKPIVNIDPQTAELNHLKQQVQQLQVLLLQAHGGTLPGSITVEPSENLQSLMEKNQSLVEENEKLSRGLSEAAGQTAQMLERIILTEQANEKMNAKLEELRQHAACKLDLQKLVETLEDQELKENVEIICNLQQLITQLSDETVACMAAAIDTAVEQEAQVETSPETSRSSDAFTTQHALRQAQMSKELVELNKALALKEALARKMTQNDSQLQPIQYQYQDNIKELELEVINLQKEKEELVLELQTAKKDANQAKLSERRRKRLQELEGQIADLKKKLNEQSKLLKLKESTERTVSKLNQEIRMMKNQRVQLMRQMKEDAEKFRQWKQKKDKEVIQLKERDRKRQYELLKLERNFQKQSNVLRRKTEEAAAANKRLKDALQKQREVADKRKETQSRGMEGTAARVKNWLGNEIEVMVSTEEAKRHLNDLLEDRKILAQDVAQLKEKKESGENPPPKLRRRTFSLTEVRGQVSESEDSITKQIESLETEMEFRSAQIADLQQKLLDAESEDRPKQRWENIATILEAKCALKYLIGELVSSKIQVSKLESSLKQSKTSCADMQKMLFEERNHFAEIETELQAELVRMEQQHQEKVLYLLSQLQQSQMAEKQLEESVSEKEQQLLSTLKCQDEELEKMREVCEQNQQLLRENEIIKQKLTLLQVASRQKHLPKDTLLSPDSSFEYVPPKPKPSRVKEKFLEQSMDIEDLKYCSEHSVNEHEDGDGDDDEGDDEEWKPTKLVKVSRKNIQGCSCKGWCGNKQCGCRKQKSDCGVDCCCDPTKCRNRQQGKDSLGTVERTQDSEGSFKLEDPTEVTPGLSFFNPVCATPNSKILKEMCDVEQVLSKKTPPAPSPFDLPELKHVATEYQENKAPGKKKKRALASNTSFFSGCSPIEEEAH
binding: binds
